Data reported in paper PMC9712993.

Assays:
[1] = test system: RGG box alone (Homo sapiens); test: EMSA; conditions: little to no binding; 10 mM Tris-HCl, 100 mM KCl, 5 mM Mg(OAc)2, pH 7.4, BSA, on ice 1 h; mRNA EMSA 0.4 pmol RNA + 20 pmol protein in 18 ul; recombinant …; protein details: N-MBP, C-His6; label: 5' FAM
CTD alone (Homo sapiens) [2] = test: EMSA; conditions: similar to RGG box alone; 10 mM Tris-HCl, 100 mM KCl, 5 mM Mg(OAc)2, pH 7.4, BSA, on ice 1 h; mRNA EMSA 0.4 pmol RNA + 20 pmol protein in 18 ul; recombinant protein; protein details: N-MBP, C-His6; label: 5' FAM
[3] = test system: RGG box alone (Homo sapiens); test: fluorescence polarization; conditions: 10 mM Tris-HCl, 100 mM KCl, 5 mM Mg(OAc)2, pH 7.4, BSA, on ice 1 h; mRNA EMSA 0.4 pmol RNA + 20 pmol protein in 18 ul; recombinant protein; protein details: N-MBP, C-His6; label: 5' FAM
CTD alone (Homo sapiens) [4] = test: fluorescence polarization; conditions: 10 mM Tris-HCl, 100 mM KCl, 5 mM Mg(OAc)2, pH 7.4, BSA, on ice 1 h; mRNA EMSA 0.4 pmol RNA + 20 pmol protein in 18 ul; recombinant protein; protein details: N-MBP, C-His6; label: 5' FAM

Measured: binding result

UUUUUUUUUUUUUUUUUU [(U)18]
no binding: [1] | CTD alone (Homo sapiens) [2] | [3] | CTD alone (Homo sapiens) [4]

Construct, isoform or probe ends are uncertain for at least one entry. Negatives hold for the conditions tested. For some of these results: At least one verdict was read from the data and is not stated in words by the source.
